PubChem BioAssay AID1259254, NCATS | 2017

- Aim: 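Genome-wide screen for genes that prevent DNA re-replication in cancer cells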 (primary screen)
- Cells: human HCT116 colorectal cancer cells
- Reagents: single siRNA against human genes
- Duration: 3 days
- Detection: 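Imaged Hoechst DNA stain sorts each cell into a cycle phase by DNA amount; per plate, G2 fraction set to 0% for non-targeting and 100% for GMNN siRNA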
- Scale: G2 robust z-score and G2 cells, % of GMNN control: higher = more G2 cells, more excess DNA replication; raw share of cells in G2: higher = larger share of cells with G2 DNA content
- Active means: 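An siRNA counts as active if its G2 robust z-score lies at least 5 MADs above the screen median; here such calls match roughly 38% of GMNN control or more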
Here is one part, drawn at random, of about 59,000 reagents. About 1,550 of all reagents (2.6%) were called active. 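G2 share is only a proxy for re-replication; each gene was hit by three separate siRNAs, and active genes were retested.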 The raw values are shown without normalisation. A number with no mark means an inactive call. The numbers tell different reagents against one gene apart. Not given: the amount of reagent.

| target | siRNA no. | G2 robust z-score | G2 cells, % of GMNN control | raw share of cells in G2 (%) |
| --- | --- | --- | --- | --- |
| DNAJA1 (DnaJ heat shock protein family (Hsp40) member A1) | 1 | 0.407 | 5.83 | 5.78 |
| DNAJA1 (DnaJ heat shock protein family (Hsp40) member A1) | 2 | -0.741 | -2.24 | 3.8 |
| DNAJA1 (DnaJ heat shock protein family (Hsp40) member A1) | 3 | -0.333 | 0.621 | 3.33 |
| HINT1P1 (histidine triad nucleotide binding protein 1 pseudogene 1) | 1 | -0.729 | -2.16 | 2.83 |
| HINT1P1 (histidine triad nucleotide binding protein 1 pseudogene 1) | 2 | -0.591 | -1.19 | 3.01 |
| HINT1P1 (histidine triad nucleotide binding protein 1 pseudogene 1) | 3 | 0.218 | 4.5 | 5.19 |
| MTUS1 (microtubule associated scaffold protein 1) | 1 | 0.859 | 9.01 | 7.9 |
| MTUS1 (microtubule associated scaffold protein 1) | 2 | -0.478 | -0.396 | 4.27 |
| MTUS1 (microtubule associated scaffold protein 1) | 3 | 0.444 | 6.09 | 4.96 |
| PCDHGB3 (protocadherin gamma subfamily B, 3) | 1 | 1.22 | 11.5 | 11.5 |
| PCDHGB3 (protocadherin gamma subfamily B, 3) | 2 | -1.46 | -7.3 | 1.83 |
| PCDHGB3 (protocadherin gamma subfamily B, 3) | 3 | -0.69 | -1.89 | 3.55 |
| FOXK2 (forkhead box K2) | 1 | 0.903 | 9.32 | 8.43 |
| FOXK2 (forkhead box K2) | 2 | -0.771 | -2.46 | 4.75 |
| FOXK2 (forkhead box K2) | 3 | -0.433 | -0.0769 | 4.17 |
| ZNF282 (zinc finger protein 282) | 1 | -1.07 | -4.57 | 2.01 |
| ZNF282 (zinc finger protein 282) | 2 | -0.916 | -3.48 | 4.44 |
| ZNF282 (zinc finger protein 282) | 3 | 1.68 | 14.8 | 9.53 |
| KCNC1 (potassium voltage-gated channel subfamily C member 1) | 1 | -0.773 | -2.47 | 4.39 |
| KCNC1 (potassium voltage-gated channel subfamily C member 1) | 2 | -0.471 | -0.345 | 4.67 |
| KCNC1 (potassium voltage-gated channel subfamily C member 1) | 3 | 1.92 | 16.5 | 10.8 |
| ESCO1 | 1 | 2.06 | 17.4 | 11.1 |
| ESCO1 | 2 | 2.88 | 23.2 | 14.9 |
| ESCO1 | 3 | -0.494 | -0.508 | 5.43 |
| RPL29P12 (ribosomal protein L29 pseudogene 12) | 1 | 3.18 | 25.3 | 12.9 |
| RPL29P12 (ribosomal protein L29 pseudogene 12) | 2 | -0.317 | 0.738 | 3.49 |
| RPL29P12 (ribosomal protein L29 pseudogene 12) | 3 | 0.893 | 9.25 | 7.01 |
| NIPBL-DT (NIPBL divergent transcript) | 1 | 0.24 | 4.66 | 5.53 |
| NIPBL-DT (NIPBL divergent transcript) | 2 | 0.371 | 5.58 | 5.29 |
| NIPBL-DT (NIPBL divergent transcript) | 3 | -0.247 | 1.23 | 3.43 |
| NUS1 (NUS1 dehydrodolichyl diphosphate synthase subunit) | 1 | 0.546 | 6.81 | 6.82 |
| NUS1 (NUS1 dehydrodolichyl diphosphate synthase subunit) | 2 | 0.474 | 6.3 | 5.21 |
| NUS1 (NUS1 dehydrodolichyl diphosphate synthase subunit) | 3 | -0.353 | 0.487 | 1.96 |
| LAT2 (linker for activation of T cells family member 2) | 1 | -0.496 | -0.52 | 4.9 |
| LAT2 (linker for activation of T cells family member 2) | 2 | 3.59 | 28.2 | 15.1 |
| LAT2 (linker for activation of T cells family member 2) | 3 | 0.248 | 4.71 | 5.01 |
| CHRNE (cholinergic receptor nicotinic epsilon subunit) | 1 | -0.175 | 1.74 | 5.92 |
| CHRNE (cholinergic receptor nicotinic epsilon subunit) | 2 | 1.89 | 16.3 | 10.3 |
| CHRNE (cholinergic receptor nicotinic epsilon subunit) | 3 | 2.5 | 20.5 | 12.4 |
| ARRB1 (arrestin beta 1) | 1 | 0.0576 | 3.37 | 5.87 |
| ARRB1 (arrestin beta 1) | 2 | 3.24 | 25.8 | 14.3 |
| ARRB1 (arrestin beta 1) | 3 | 1.02 | 10.2 | 7.77 |
| CCND2 (cyclin D2) | 1 | -0.902 | -3.38 | 2.93 |
| CCND2 (cyclin D2) | 2 | -0.283 | 0.977 | 5.35 |
| CCND2 (cyclin D2) | 3 | -0.654 | -1.63 | 4.38 |
| ANKRD20A12P (ankyrin repeat domain 20 family member A12, pseudogene) | 1 | -0.379 | 0.299 | 4.09 |
| ANKRD20A12P (ankyrin repeat domain 20 family member A12, pseudogene) | 2 | -0.226 | 1.38 | 3.86 |
| ANKRD20A12P (ankyrin repeat domain 20 family member A12, pseudogene) | 3 | 0.921 | 9.45 | 7.99 |

In a second layout: results already given.
{"target": "HINT1P1 (histidine triad nucleotide binding protein 1 pseudogene 1)", "siRNA no.": 3, "G2 robust z-score": 0.218, "G2 cells, % of GMNN control": 4.5, "raw share of cells in G2 (%)": 5.19}
{"target": "MTUS1 (microtubule associated scaffold protein 1)", "siRNA no.": 1, "G2 robust z-score": 0.859, "G2 cells, % of GMNN control": 9.01, "raw share of cells in G2 (%)": 7.9}
{"target": "MTUS1 (microtubule associated scaffold protein 1)", "siRNA no.": 2, "G2 robust z-score": -0.478, "G2 cells, % of GMNN control": -0.396, "raw share of cells in G2 (%)": 4.27}
